PMC10651131
Like-named read-outs stand apart in the source and are kept apart here. Results are given in words; binding and its absence hold for the method and conditions named. In cells and extracts the contact can be indirect. Some binding calls cover weakened binding; strength is not graded here. For some of these results: Where a sequence is shown, tags or fusion partners need not be part of it.

T1: serum response factor (SRF), fused to the S10 or S11 GFP fragment (UniProt Q9JM73)
T1 sequence: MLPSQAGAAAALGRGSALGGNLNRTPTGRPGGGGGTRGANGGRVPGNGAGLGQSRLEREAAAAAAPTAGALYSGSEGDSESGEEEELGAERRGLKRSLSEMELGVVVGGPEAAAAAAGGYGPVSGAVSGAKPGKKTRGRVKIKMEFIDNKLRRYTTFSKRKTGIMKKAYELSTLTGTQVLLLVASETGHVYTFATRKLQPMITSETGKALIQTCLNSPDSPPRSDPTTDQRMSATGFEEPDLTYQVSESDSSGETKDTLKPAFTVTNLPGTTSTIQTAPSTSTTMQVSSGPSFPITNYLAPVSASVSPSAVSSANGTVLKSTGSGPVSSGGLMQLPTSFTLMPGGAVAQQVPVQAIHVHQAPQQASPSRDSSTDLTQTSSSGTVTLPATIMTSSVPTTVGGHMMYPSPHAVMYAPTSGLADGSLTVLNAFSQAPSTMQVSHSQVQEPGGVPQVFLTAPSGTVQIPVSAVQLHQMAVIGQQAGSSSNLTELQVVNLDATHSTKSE

T2: MKL2 for coimmunoprecipitation (UniProt P59759)
T2 sequence: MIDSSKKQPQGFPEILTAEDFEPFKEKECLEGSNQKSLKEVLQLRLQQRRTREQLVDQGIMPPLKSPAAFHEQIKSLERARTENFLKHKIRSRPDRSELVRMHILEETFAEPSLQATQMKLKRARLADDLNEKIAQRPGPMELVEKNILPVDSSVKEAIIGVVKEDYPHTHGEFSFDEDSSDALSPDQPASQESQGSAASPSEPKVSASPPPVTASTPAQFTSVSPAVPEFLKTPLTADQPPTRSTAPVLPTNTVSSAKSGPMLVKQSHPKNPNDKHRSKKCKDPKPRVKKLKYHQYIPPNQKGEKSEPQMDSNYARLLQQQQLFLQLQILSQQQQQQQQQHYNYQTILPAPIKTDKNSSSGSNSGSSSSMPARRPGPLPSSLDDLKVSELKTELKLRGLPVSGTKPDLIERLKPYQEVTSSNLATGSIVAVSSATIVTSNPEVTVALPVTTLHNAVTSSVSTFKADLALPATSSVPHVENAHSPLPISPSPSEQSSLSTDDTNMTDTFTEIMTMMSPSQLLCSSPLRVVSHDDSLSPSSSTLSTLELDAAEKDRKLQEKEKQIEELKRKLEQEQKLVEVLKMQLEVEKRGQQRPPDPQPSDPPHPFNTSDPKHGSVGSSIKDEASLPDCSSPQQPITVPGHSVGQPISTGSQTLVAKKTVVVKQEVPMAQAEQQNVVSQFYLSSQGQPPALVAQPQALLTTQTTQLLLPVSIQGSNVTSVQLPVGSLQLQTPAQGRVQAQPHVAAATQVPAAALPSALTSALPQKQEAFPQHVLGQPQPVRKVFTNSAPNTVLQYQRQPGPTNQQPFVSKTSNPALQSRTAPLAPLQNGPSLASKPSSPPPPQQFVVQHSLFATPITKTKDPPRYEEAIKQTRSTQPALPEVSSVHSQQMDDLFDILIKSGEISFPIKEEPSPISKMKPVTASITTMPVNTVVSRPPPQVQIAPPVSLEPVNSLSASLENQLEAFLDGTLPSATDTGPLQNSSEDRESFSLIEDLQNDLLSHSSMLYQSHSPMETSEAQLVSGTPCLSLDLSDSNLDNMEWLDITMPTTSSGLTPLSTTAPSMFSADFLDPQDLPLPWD

T3: tagged MKL1 for coimmunoprecipitation (UniProt Q8K4J6)
T3 sequence: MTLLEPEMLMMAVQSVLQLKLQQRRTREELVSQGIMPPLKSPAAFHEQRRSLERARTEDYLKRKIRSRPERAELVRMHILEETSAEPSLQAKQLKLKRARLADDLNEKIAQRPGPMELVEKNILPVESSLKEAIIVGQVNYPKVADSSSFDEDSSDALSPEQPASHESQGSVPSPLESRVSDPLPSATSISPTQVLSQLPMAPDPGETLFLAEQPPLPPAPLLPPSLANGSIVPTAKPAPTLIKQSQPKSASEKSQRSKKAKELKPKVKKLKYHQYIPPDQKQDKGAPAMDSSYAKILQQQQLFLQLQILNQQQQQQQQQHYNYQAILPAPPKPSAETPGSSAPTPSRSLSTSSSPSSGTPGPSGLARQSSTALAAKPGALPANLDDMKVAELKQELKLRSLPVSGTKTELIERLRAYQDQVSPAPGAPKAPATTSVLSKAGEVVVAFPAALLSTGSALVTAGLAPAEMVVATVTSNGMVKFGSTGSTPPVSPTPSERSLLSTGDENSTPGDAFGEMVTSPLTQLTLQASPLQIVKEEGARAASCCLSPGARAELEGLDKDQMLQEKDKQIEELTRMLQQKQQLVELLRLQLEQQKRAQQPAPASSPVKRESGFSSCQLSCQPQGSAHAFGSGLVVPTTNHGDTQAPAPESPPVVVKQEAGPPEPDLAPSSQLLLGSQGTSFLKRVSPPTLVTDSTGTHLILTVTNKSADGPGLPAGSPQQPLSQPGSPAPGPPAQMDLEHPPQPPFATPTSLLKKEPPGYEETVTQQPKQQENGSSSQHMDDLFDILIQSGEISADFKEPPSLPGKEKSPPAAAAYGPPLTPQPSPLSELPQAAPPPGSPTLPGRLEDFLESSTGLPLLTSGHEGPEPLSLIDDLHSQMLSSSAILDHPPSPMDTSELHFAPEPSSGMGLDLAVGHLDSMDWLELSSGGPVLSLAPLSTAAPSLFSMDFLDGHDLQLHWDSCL


Experiments:
[1] = biological target: B cell lymphoma 6 (Bcl6), fused to the S10 or S11 GFP fragment (UniProt P41183); experiment: split reporter; trimolecular fluorescence complementation (TriFC): GFP (S1 to S9) fragment coexpressed with proteins fused to the S10 or S11 GFP fragments in HEK293T cells, epifluorescence 8 hours after transfection; in some panels an untagged third protein coexpressed
[2] = biological target: T1, serum response factor (SRF), fused to the S10 or S11 GFP fragment; experiment: as above
[3] = biological target: T2, MKL2 for coimmunoprecipitation; experiment: co-IP; Bcl6, SRF and MKL1 or MKL2 overexpressed together in HEK293T; MKL1 or MKL2 pulled down; Triton X-100 lysis buffer; blots with HA, Myc or GST antibodies
[4] = biological target: T3, tagged MKL1 for coimmunoprecipitation; experiment: as above
[5] = biological target: megakaryoblastic leukemia 1 (MKL1), fused to the S10 or S11 GFP fragment (UniProt Q8K4J6); experiment: split reporter; trimolecular fluorescence complementation (TriFC): GFP (S1 to S9) fragment coexpressed with proteins fused to the S10 or S11 GFP fragments in HEK293T cells, epifluorescence 8 hours after transfection; in some panels an untagged third protein coexpressed
[6] = substrate: B cell lymphoma 6 (Bcl6), fused to the S10 or S11 GFP fragment (UniProt P41183); experiment: as above; remark: listed apart in the source

Row | binding [1] | binding [2] | binding [3] | binding [4] | binding [5] | binding [6] | Molecule
1 | binds | binds |  |  |  |  | B cell lymphoma 6 (Bcl6), fused to the S10 or S11 GFP fragment (from UniProt P41183 1-707)
2 |  |  | binds | binds |  |  | tagged SRF for coimmunoprecipitation (protein, UniProt Q9JM73 1-504) MLPSQAGAAAALGRGSALGGNLNRTPTGRPGGGGGTRGANGGRVPGNGAGLGQSRLEREAAAAAAPTAGALYSGSEGDSESGEEEELGAERRGLKRSLSEMELGVVVGGPEAAAAAAGGYGPVSGAVSGAKPGKKTRGRVKIKMEFIDNKLRRYTTFSKRKTGIMKKAYELSTLTGTQVLLLVASETGHVYTFATRKLQPMITSETGKALIQTCLNSPDSPPRSDPTTDQRMSATGFEEPDLTYQVSESDSSGETKDTLKPAFTVTNLPGTTSTIQTAPSTSTTMQVSSGPSFPITNYLAPVSASVSPSAVSSANGTVLKSTGSGPVSSGGLMQLPTSFTLMPGGAVAQQVPVQAIHVHQAPQQASPSRDSSTDLTQTSSSGTVTLPATIMTSSVPTTVGGHMMYPSPHAVMYAPTSGLADGSLTVLNAFSQAPSTMQVSHSQVQEPGGVPQVFLTAPSGTVQIPVSAVQLHQMAVIGQQAGSSSNLTELQVVNLDATHSTKSE
3 |  | binds |  |  | binds | no binding | megakaryoblastic leukemia 1 (MKL1), fused to the S10 or S11 GFP fragment (protein, UniProt Q8K4J6 1-964) MTLLEPEMLMMAVQSVLQLKLQQRRTREELVSQGIMPPLKSPAAFHEQRRSLERARTEDYLKRKIRSRPERAELVRMHILEETSAEPSLQAKQLKLKRARLADDLNEKIAQRPGPMELVEKNILPVESSLKEAIIVGQVNYPKVADSSSFDEDSSDALSPEQPASHESQGSVPSPLESRVSDPLPSATSISPTQVLSQLPMAPDPGETLFLAEQPPLPPAPLLPPSLANGSIVPTAKPAPTLIKQSQPKSASEKSQRSKKAKELKPKVKKLKYHQYIPPDQKQDKGAPAMDSSYAKILQQQQLFLQLQILNQQQQQQQQQHYNYQAILPAPPKPSAETPGSSAPTPSRSLSTSSSPSSGTPGPSGLARQSSTALAAKPGALPANLDDMKVAELKQELKLRSLPVSGTKTELIERLRAYQDQVSPAPGAPKAPATTSVLSKAGEVVVAFPAALLSTGSALVTAGLAPAEMVVATVTSNGMVKFGSTGSTPPVSPTPSERSLLSTGDENSTPGDAFGEMVTSPLTQLTLQASPLQIVKEEGARAASCCLSPGARAELEGLDKDQMLQEKDKQIEELTRMLQQKQQLVELLRLQLEQQKRAQQPAPASSPVKRESGFSSCQLSCQPQGSAHAFGSGLVVPTTNHGDTQAPAPESPPVVVKQEAGPPEPDLAPSSQLLLGSQGTSFLKRVSPPTLVTDSTGTHLILTVTNKSADGPGLPAGSPQQPLSQPGSPAPGPPAQMDLEHPPQPPFATPTSLLKKEPPGYEETVTQQPKQQENGSSSQHMDDLFDILIQSGEISADFKEPPSLPGKEKSPPAAAAYGPPLTPQPSPLSELPQAAPPPGSPTLPGRLEDFLESSTGLPLLTSGHEGPEPLSLIDDLHSQMLSSSAILDHPPSPMDTSELHFAPEPSSGMGLDLAVGHLDSMDWLELSSGGPVLSLAPLSTAAPSLFSMDFLDGHDLQLHWDSCL
